In PubChem BioAssay AID901 (National Center for Advancing Translational Sciences (NCATS), 2007) one finds AC50 data, which are given here for 43 compounds.

Some of the results follow. The main result of the screen is listed elsewhere. These columns were measured beside it and carry no call. Most of these compounds were active or inconclusive in the main read-out, so they are no random draw. The note in brackets gives the kind of curve behind each potency; many fits are weak.

This assay in a line: qHTS Assay for Identifying the Cell-Membrane Permeable IMPase Inhibitors. The conditions noted are these: CHO-M1 cells, IP1 accumulation, HTRF TR-FRET ratio; measured here: donor channel 620 nm AC50. A general note: qHTS replaces the single test concentration by a dilution series.
In the case of `CCOC(=O)c1ccc(NC(=O)CN2C(=O)C(CC)SC(CC)C2=O)cc1` (stereo not drawn), the AC50 (as a rule, the midpoint of the concentration-response curve, whichever way the signal moves) is 0.00631 µM [rising, full curve, poor fit].

On to `COc1ccc(-c2noc(CCC(=O)N(C)c3cc(Cl)ccc3OC)n2)cc1`, for which the AC50 is 5.62 µM [falling, single point].

For the compound `COc1ccc(NC(=O)CN2CCN(c3ccccc3F)CC2)cc1`, the AC50 was 0.00631 µM [rising, full curve, poor fit].

`OC(COCc1ccccc1)CN1CCN(c2ccccc2F)CC1` (stereo not drawn): the AC50 was 31.6 µM [rising, single point].

Consider `Cn1c(=O)[nH]c(=O)c2c1nc(Br)n2CCCc1ccccc1`, for which the AC50 is 0.141 µM [falling, full curve, poor fit].

Take `CCOC(=O)c1c(NC(=O)CN2C(=O)NC3(CCCCC3)C2=O)sc(C)c1-c1ccc(C)cc1`: the AC50 was 35.5 µM [rising, single point].

On to `Cc1cc(Cl)cc(C)c1OCCCCN1CCOCC1`, for which the AC50 was 25.1 µM [rising, single point].

For the compound `NS(=O)(=O)c1ccc(NC(=O)COC(=O)CCC2CCCCC2)cc1`, the half-maximal activity concentration (AC50) is 35.5 µM [rising, single point].

Turning to `OCC(C#CCN1CCCCC1)NCc1ccccc1` (stereo not drawn), the AC50 was 0.0631 µM [rising, partial curve, poor fit].

`Nc1nnnn1/N=C\c1ccc(Cl)c([N+](=O)[O-])c1`: the AC50 is 0.126 µM [falling, full curve, poor fit].

Turning to `CCCN(CCC)C(=S)NC(=O)c1ccc(Cl)cc1Cl`, the concentration at half-maximal activity (AC50) was 3.98 µM [falling, partial curve, poor fit].

With `Cn1c(=O)[nH]c(=O)c2c1nc(NC1CCCCC1)n2Cc1ccccc1`, the AC50 was 3.98 µM [falling, full curve].

Consider `CCOC(=O)c1c(NC(=O)/C=C/c2ccc(C)o2)sc(C)c1C`, for which the AC50 is 20 µM [rising, single point].

For `COc1ccc2[nH]c(C(=O)O)c(NS(=O)(=O)c3ccc(OC)c(OC)c3)c2c1`, the AC50 is 0.0316 µM [falling, full curve, poor fit].

As to `Cc1ccc(C)c(NC(=O)C2Cc3ccccc3CN2C(=O)OCc2ccccc2)c1` (stereo not drawn), the AC50 is 0.2 µM [rising, full curve, poor fit].

As to `O=C(NC1CCCCC1)N1CCN(c2ccccc2)CC1`, the concentration at half-maximal activity (AC50) was 31.6 µM [falling, single point].

With `Cn1c(SCC(=O)Nc2nccs2)nnc1-c1ccco1`, the AC50 was 3.16 µM [falling, partial curve].

On to `N#Cc1cn(Cc2cccc(Cl)c2)c2ccccc12`, for which the AC50 is 0.501 µM [falling, single point].

On to `CC(C)CN(C(=O)COC(=O)CCc1c[nH]c2ccccc12)C1CCS(=O)(=O)C1` (stereo not drawn), for which the concentration at half-maximal activity (AC50) is 1.26 µM [falling, single point].

In the case of `COc1ccc(-c2nnc(CSc3nc4ccccc4c(=O)n3C)o2)cc1OC`, the AC50 was 12.6 µM [rising, single point].

With `COc1ccccc1C(=O)n1nc(-c2ccc(Cl)cc2)nc1N`, the AC50 was 0.0447 µM [falling, single point].

On to `Cc1ccc(NS(=O)(=O)c2ccc3nc(-c4ccccc4)[nH]c3c2)cc1Cl`, for which the AC50 was 0.0224 µM [falling, full curve, poor fit].

For `CNC(=O)c1cc2ccccc2o1`, the half-maximal activity concentration (AC50) is 0.794 µM [falling, full curve].

As for `O=C(CCS(=O)(=O)c1cc(Br)cc2c1N(C(=O)C1CC1)CC2)N1CCN(c2ccccc2)CC1`, the half-maximal activity concentration (AC50) is 1.12 µM [falling, full curve, poor fit].

For `CN(C)c1ccc(-n2cccc2/C=C2/SC(=Nc3ccc(F)cc3)NC2=O)cc1`, the AC50 is 20 µM [rising, single point].

Take `COC(=O)c1c(N)c(C#N)c2n1CCCCC2`: the AC50 was 0.501 µM [falling, single point].

With `COc1ccc(S(=O)(=O)NCc2ccc(C(=O)O)cc2)cc1`, the AC50 was 0.794 µM [falling, single point].

`CCOC(=O)CSc1nncc2ccc(OC)c(OC)c12`: the AC50 is 0.251 µM [falling, full curve, poor fit].

Consider `O=C1NC(=S)S/C1=C1\Sc2ccccc2N1CCCS(=O)(=O)O`, for which the AC50 was 25.1 µM [falling, single point].

Take `N#Cc1nc(-c2cccs2)oc1NCc1ccc2c(c1)OCO2`: the AC50 was 12.6 µM [rising, single point].

As to `CCn1nccc1C(=O)Nc1cc(Cl)cc(Cl)c1`, the AC50 was 5.01 µM [falling, single point].

For the compound `O=C(c1ccccc1)c1ccc(N2CCOCC2)c(NC(=O)c2ccco2)c1`, the AC50 is 3.98 µM [falling, full curve, poor fit].

Take `CCCCn1c(NC(C)CC)nc2c1c(=O)[nH]c(=O)n2C` (stereo not drawn): the concentration at half-maximal activity (AC50) was 10 µM [falling, partial curve].

As for `c1coc(-c2nnc3sc(-c4cccs4)nn23)c1`, the AC50 was 0.2 µM [falling, full curve, poor fit].

As to `S=c1[nH]nc(-c2cccc(Br)c2)o1`, the AC50 was 15.8 µM [rising, partial curve].

On to `CCc1ccc2c(c1)cc(CN(C(=S)Nc1ccc(Cl)cc1)C1CC1)c1nnnn12`, for which the AC50 was 31.6 µM [rising, single point].

Turning to `O=C(c1cc2c(s1)-c1ccccc1OC2)N1CCN(c2ccccn2)CC1`, the AC50 is 12.6 µM [rising, partial curve].

On to `COC(=O)c1ccccc1NC(=O)c1ccc(-c2ccccc2F)o1`, for which the concentration at half-maximal activity (AC50) is 35.5 µM [rising, single point].

`COc1ccc(C)cc1Nc1nc2ccccc2c2nnc(C)n12`: the AC50 was 5.62 µM [rising, single point].

As to `CCOC(=O)CSC1=N/C(=C\c2cccnc2)C(=O)N1c1ccc(OC)cc1`, the AC50 is 35.5 µM [rising, partial curve].

For `Cc1cc(C)c2c(=O)n(-c3ccccc3)[nH]c2n1`, the AC50 was 31.6 µM [falling, single point].

Turning to `Cc1ccc(C)c2sc(NC(=O)c3ccc(N4CCCCC4)c([N+](=O)[O-])c3)nc12`, the AC50 is 1 µM [falling, partial curve, poor fit].

In the case of `COc1cccc(C2/C(=C(\O)c3ccc(OC)c(OC)c3)C(=O)C(=O)N2c2cc(C)on2)c1` (stereo not drawn), the AC50 is 12.6 µM [rising, partial curve].
